Experimental data reported in patent publication US10421820B2, “Bruton's tyrosine kinase as anti-cancer drug target” (The Research Foundation for The State University of New York, priority 2008, dated 2019).
At least one compound was matched to its structure with a doubt left.

How the values were obtained:
[1] = system: SK-Br-3 Her2/neu positive breast cancer cells; experiment: SKBR3 cell number after 72 hours with or without EGF; format: cell-based, human
[2] = system: HER2, AKT and ERK phosphorylation; experiment: Immunoblots of HER2, AKT and ERK phosphorylation in SKbr3 cells with or without EGF; format: cell-based, human; details: 1 μM, EGF 50 ng/ml, 3 hours
[3] = system: HER2+ breast cancer cells; experiment: Growth factor-driven lapatinib resistance in HER2+ breast cancer cells (NRG, EGF); format: cell-based, human
SKBR3 xenograft = SKBR3 xenograft tumor growth in NOD/SCID mice (mammary fat pad injection); format: in vivo; details: between 6 mg/kg/day and 12 mg/kg/day
MDA-MB-231 cells = experiment: MDA-MB-231 tail vein metastasis model in NOD/SCID mice; format: in vivo; details: 12 mg/kg per day, oral
Method: FIG. 24A-24D. […] (24A) 10^6 MDA-MB-231 cells in 100 μl PBS were injected into the tail vein of 4-5 week old female NOD/SCID mice (Jackson Labs). Injected animals were randomly assigned to control or experimental groups. Starting at time of tail vein injection, mice were treated with vehicle or ibrutinib (12 mg/kg per day, oral). At end point, mice were euthanized and bones and organs collected for histological analysis. Note that all bone metastases in control groups led to the development of paralysis (5/16, n=16 per group). […] Thin section of a tumor arising in an untreated control animal.
More specifically, 10^6 MDA-MB-231 (Her2-) cells in 100 μl PBS were injected into the tail vein of 4-5 week old female NOD/SCID mice (Jackson Labs). Injected animals were randomly assigned to control or experimental groups. Starting at time of tail vein injection, mice were treated with vehicle or ibrutinib (12 mg/kg per day, oral). At end point, mice were euthanized then bones and organs collected for histological analysis. Note that bone metastases in control groups led to the development of paralysis (5/16, n=16 per group).

In the case of `C=CC(=O)N1CCC[C@@H](n2nc(-c3ccc(Oc4ccccc4)cc3)c3c(N)ncnc32)C1` [Ibrutinib], the “killing of SK-Br-3 cells, compared with Lapatinib” value [1] was “effective at lower concentrations than Lapatinib”, the “effect of EGF treatment on drug activity (cell number)” value ([1]; 50 ng/ml EGF) was “EGF treatment counteracts lapatinib to a much larger degree than PCI-32765” and the “ERK activation in the presence of EGF” value [2] was “EGF treatment does not bypass the effects of PCI-32765 on inhibiting ERK activation”. For the same molecule, the “ERK reactivation in the presence of lapatinib” value [2] was “prevents ERK reactivation in the presence of lapatinib”, the “HER2+ breast cancer cell proliferation in the presence of NRG and/or EGF” value [3] was “prevents HER2+ breast cancer cell proliferation” and the “SKBR3 xenograft tumor growth” value (SKBR3 xenograft) was “inhibits”. For the same molecule, the bone metastasis (MDA-MB-231 cells) was “prevents in vivo bone metastasis”, the “metastases in non-lung areas and bone niches (legs and vertebra)” value (MDA-MB-231 cells) was “significantly decreased metastases” and the “metastatic sites such as lungs” value (MDA-MB-231 cells) was “unaffected by treatment”. For the same molecule, the bone metastasis (MDA-MB-231 cells; listed as ibrutinib) was “prevents bone metastasis”.
